In assay [1] the target is T1, ParM with C-terminal FLAG epitope (pMS-CFLAGparM) (plasmid R1 (R1-16), in E. coli) (UniProt P11904).
T1 sequence: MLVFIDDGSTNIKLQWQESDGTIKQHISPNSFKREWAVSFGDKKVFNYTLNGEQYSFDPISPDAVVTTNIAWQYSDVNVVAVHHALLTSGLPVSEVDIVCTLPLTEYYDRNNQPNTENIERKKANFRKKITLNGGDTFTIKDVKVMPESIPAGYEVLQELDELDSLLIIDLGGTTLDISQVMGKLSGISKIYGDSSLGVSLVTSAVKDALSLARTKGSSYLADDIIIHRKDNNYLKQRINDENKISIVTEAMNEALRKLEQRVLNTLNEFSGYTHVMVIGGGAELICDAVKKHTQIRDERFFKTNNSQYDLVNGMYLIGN
Nature of the assay: co-IP; E. coli MS411 co-producing one FLAG-tagged Par protein and one Tra protein pairwise from two vectors, without R1-16; 1% formaldehyde cross-linking; capture on anti-FLAG affinity gel, elution with FLAG peptide; Western blot with antibodies to Tra proteins (Figure 6).

The target of assay [2] is T1, ParM with C-terminal FLAG epitope (pMS-CFLAGparM) (plasmid R1 (R1-16), in E. coli). Nature of the assay: co-IP; E. coli MS411 carrying R1-16 (native levels of Tra proteins) and a FLAG-tagged par allele; 1% formaldehyde cross-linking; capture on anti-FLAG affinity gel overnight at 4°C, elution with FLAG peptide; Western blot with antibodies to Tra proteins (Figure S2).

We go through 3 substances from article PMC4949242, “Conjugative DNA Transfer Is Enhanced by Plasmid R1 Partitioning Proteins”.

No constants are given. Whether binding was seen depends on the method and setting. In cells and extracts the contact can be indirect. Binding calls can cover weak binding; strength is not graded here. Where a sequence is shown, tags or fusion partners need not be part of it.

Take “TraC, VirB4-like channel ATPase of plasmid R1 (enzyme)”: the binding result in assay [1] and in assay [2] was “binds” in each case.
With “TraI, relaxase/helicase of plasmid R1 (enzyme)”, the binding entry in assay [1] and in assay [2] was “binds” each time.
For the substance “TraD, type IV coupling protein (T4CP) of plasmid R1”, the binding result in assay [1] and in assay [2] was “binds” in each case.
